Experimental data taken from patent US20110224133A1 (University of Southern California, priority 2008, published 2011).
For at least one compound, name, drawing or mass did not settle the structure.

System: mTor kinase activity
Assay: Immunoblot of p70S6K and S6 phosphorylation in BCBL1 cells
Format: cell-based, human
Settings: 12 hr, 2 μM rapamycin or 30 μM peptide
Description: WCLs were used for immunoblotting with αp70S6K, αphospho-specific p70S6K, αphospho-specific S6, or αactin. […] WCLs were used for immunoblotting with αFlag or αGST.
Levels of phosphorylation of p70S6K and ribosomal protein S6 in BCBL1 cells were evaluated by immunoblotting with α-p70S6K, αphospho-specific p70S6K, αphospho-specific S6, or αactin.

CO[C@H]1C[C@@H]2CC[C@@H](C)[C@@](O)(O2)C(=O)C(=O)N2CCCC[C@H]2C(=O)O[C@H]([C@H](C)C[C@@H]2CC[C@@H](O)[C@H](OC)C2)CC(=O)[C@H](C)/C=C(\C)[C@@H](O)[C@@H](OC)C(=O)[C@H](C)C[C@H](C)/C=C/C=C/C=C/1C [rapamycin]
phosphorylation of p70S6K: near complete loss | phosphorylation of ribosomal protein S6: near complete loss
